Among the data in PubChem BioAssay AID1347423 (Functional Genomics Laboratory (NCATS/FGL), 2020) are z-score values, retold here.

Among all 52,000 sequences or so, about 210 (0.4%) were called active.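 How the source made its calls: active means gene whose silencing raises cell survival under the drug, median off-target-corrected z-score across its silencing RNAs 2 or more; inactive means the rest.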 The list shows a part of the results.

This experiment in a line: Resistance to Poly (ADP-Ribose) Polymerase inhibitor: Gene Identification via Genome-wide siRNA Screen. Conditions: mouse BRCA2 R2336H ES cells, olaparib, CellTiter-Glo viability; stronger effect = higher value. Summed up:
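Mouse BRCA2 R2336H ES cells were reverse-transfected with siRNA (20 nM final), treated at 48 h with 500 nM olaparib, and read by CellTiter-Glo after 72 h. Scores: MAD-based z per siRNA, median per gene, seed off-target correction.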
In general terms: In ATP-based viability assays light output follows the ATP content of the culture.
Consider GGACCGCUUCAAAACUGGUTT against Hcrtr2, for which the z-score is inactive: -0.707.

Regarding CCAGCGAUCUUCCCAUUCUTT against Ccr8, the z-score was inactive: 0.737.

Take GGUCAUCUUCCUUUUUGCUTT against Olfr1501: the z-score was inactive: 0.426. The same measure for GGCAUUUCUUCUUCUUCACTT against Ms4a3: inactive: -0.367.

Consider CCUGCUAAUUUCAAGUGUATT against Abcg3, for which the z-score was inactive: -0.67. Turning to GGCUAGAGUUCACGUUGGATT against Mrps26, the z-score is inactive: -0.479. For the sequence GGUAGAGGCAAGAAAUUCATT against Slc5a5, the z-score is inactive: -0.579. Consider GGAACUCUUUUCCUAAAAUTT against Slco1a5, for which the z-score is inactive: 0.824. To CCACAUUUUGGCCUAUCAGTT against Mtx2 belongs inactive: 1.11; to GACUCCCAGCUGGCUAUGATT against Ifna9, inactive: -0.81; to GGUACUCACAUCUCCAAAGTT against BC049807, inactive: -0.778.

Take “GCUGUAACCAACAUACCUCTT against 6230427J02Rik”: the z-score is inactive: 1.38. As for GGUGAAAGACCACAAAUUCTT against Prkca, the z-score is inactive: -0.0256. To GGAAAAGCUUCUAAAGGAGTT against Tnfaip3 belongs inactive: -0.295. Take CCUUACUCAAGAUCCUGCUTT against Olfr1243: the z-score was inactive: 0.202.

Turning to “CCAUUUUACACCUCAAUCATT against 2310009E04Rik”, the z-score is inactive: -0.624. As to GGGACAGGUUGUUCAGUUCTT against Dbt, the z-score is inactive: -1.54. The same measure for “CGAAACCUGCUUAAAACAATT against E330016A19Rik”: inactive: -0.469; for GGCCCAGAUUUCUUAUAUATT against Tnfrsf19: inactive: -0.793; for GGCAGUUUCUUCUUCCAAATT against Hist1h1a: inactive: -1.74.

GGCUUCACAAGCCAAAAGUTT against Gabrg2: the z-score was inactive: 0.724. To GGUCUCAAUGCCCAUCAUATT against Sqle belongs inactive: -1.96; to GGCCACAAACAACCUAACATT against Nme6, inactive: 0.281; to GGAGAAUCCGAGGAUAACUTT against Ereg, inactive: -1.34. For the sequence CCAAUGUGCGAGCAAAGAUTT against Arid5a, the z-score is inactive: -0.0855. The same measure for GGCCGACAUAAAGAAAUCATT against Nol7: inactive: 0.781; for GGCCUUGAUCCAAAAGUGGTT against Cyp21a1: inactive: -0.0284; for GGCGGAGUUAAAUUUUCUGTT against Pcdhgb6: inactive: 1.47. To “GGGACCUAUUCUGUCACUGTT against ICRFP703B1614Q5.6” belongs inactive: -0.177; to “GGUGUAAAUGAGCCUUUUUTT against E230026N22Rik”, inactive: -2.89; to “GGUUGCUUUUCUCUUUGAATT against 4921536K21Rik”, inactive: -0.945.

In the case of GUGGCUUCAGAUCUCUGAATT against Krtap13, the z-score was inactive: -0.799. To GCUUCUGAAUUCCUACUUGTT against Dtymk belongs inactive: 0.262.

For the sequence GCUAUGGCCUUCGGUACAUTT against LOC280621, the z-score was inactive: 1.07. In the case of GGGCCAUGCCAACAUAGUATT against Gabpb1, the z-score was inactive: 0.252.

For CCUGACCAAGCUUGCUUGGTT against Taz, the z-score was inactive: 1.25. To “GGUCACCACCAUAGCAAGGTT against 4930583C14Rik” belongs inactive: -0.695.

Regarding GGAACAGGUAGUUUGGGAATT against Slco6b1, the z-score is inactive: -0.872. To GGGUAAAGAGCUUCUUCCATT against Ahrr belongs inactive: -1.01; to GGACGAUUCUUUUCUCCAGTT against Surf1, inactive: 0.882; to “GGUUAAGGAGAAAUGUGAUTT against A630029F06”, inactive: -0.475.

As for GGGACAUUAAGUGAUUUGUTT against Fbxo30, the z-score was inactive: -0.462.

For “GCUUUCAAGUGGUUAUGAATT against 4933414E04Rik”, the z-score is inactive: 0.836. Regarding GGCAUAACGAUGGGAAACATT against Insig2, the z-score was inactive: -1.65. As to GGUGUGGAAGUCAGUUUAATT against Serpinb3c, the z-score is inactive: 0.713.

On to “CGGUCCUCAGAACAUAUACTT against D11Bwg0434e”, for which the z-score is inactive: -0.743. The same measure for GGAGAAACCUCAGCUAAAGTT against Artn: inactive: 2.19; for CGACAAUGCCAUCGAUUCGTT against Sdc3: inactive: 1.85; for “GGUAUGGAUGCUUGAGAAATT against 2700091N06Rik”: inactive: -0.493. As to CGAAUCUGGGAUUUAUCCATT against Tparl, the z-score was inactive: 0.623. To GGCCGAAUUAAUUUCUCUGTT against Cd7 belongs inactive: 1.17; to GCACUGAACAGUUGAGAAATT against Zadh2, inactive: 0.311. In the case of GUUGAACAAUCUUGUCCUGTT against Rps25, the z-score is inactive: -0.991. To GGAAAGGAAAAAAAAGGAATT against Dncic2 belongs inactive: -0.101.

With “GGUGACAAACUUGAAGACCTT against C330016H24Rik”, the z-score was inactive: 0.0625. To “GGAAGUAUUGAUCAAGUUGTT against 2810423E13Rik” belongs inactive: 0.809; to “GCUCAGAGGUGUAUUCAUUTT against C330012H03Rik”, inactive: -1.64; to GCUGGCCAAACUUGACAGUTT against BC037006, inactive: -0.976. For GCGGUUCGCAUUUGUGAUGTT against Eftud1, the z-score is inactive: -0.32.

For the sequence GGCAAUUUUCAGAGAAGUUTT against Fosb, the z-score is inactive: -0.778. To GGACCGUUUACAACUUCUATT against Spg4 belongs inactive: -0.181; to CCUAACUUCAUCCUGUCAUTT against Tex261, inactive: -0.781.

With GGUACUGAGGUGAGCCUCUTT against Myocd, the z-score was inactive: -1.48. With CCCAAAUUGAUCCUAGCCUTT against Prkar1b, the z-score was inactive: 0.519. To CGUGCUUAAGAGUCCACUATT against H3f3a belongs inactive: -1.43; to “GGAAAACUAGACAGAAAAUTT against D030041N04Rik”, inactive: -0.326.
